In PMC10163288:
Some of the results follow.

B1: il2ra_site2_3nfp_normal_mot_HHH_b1_00660_af2_000000090_0001_40_57_H_._HHH_b1_00185_af2_0001_0000300017_0000001_0_af2pred_0001_1_af2pred_swapped (protein)
chain: SSSSDEVEEEVRRLIEEAEKLLEEGDHEEAEEIARRAATLAAEARNHELFVAVLRLLERILSSSS
B2: il2ra_site2_3nfp_normal_mot_HHH_b1_04960_000000149_0001_23_39_H_._HHH_b2_04281_0001_0000200015_0000001_0 (protein)
chain: SSSSDEEEEVERLIQELEELVREGDEEKVEQLAQRVAALAFELNDFEAFARVVELLLSLLSSSSS
B3: il2ra_site1_2b5i_normal_mot_HHH_b2_02428_000000197_0001_19_35_H_._ems_3hM_1194_af2_0001_0000300047_0000001_1_af2pred_dldesign_0_af2pred (protein)
chain: SSVRETKKLLIRIHYLAKKKGDEETVAKVDKLYEELEEAEENNDEEKIEEVRKKALELEKEVKKS
B4: il2ra_site1_1z92_sap_18_mot_HHH_b1_06033_000000254_0001_1_19_H_._HHH_b1_00885_0001_0000200008_0000001_0_0001 (protein)
chain: SSSSSEHSRKVFELMRRLNEAVRNGDEEEARELAEELLKLAEESGSRSFARLAEMVLEDLSSSSS
B5: il2ra_site2_2erj_normal_mot_HHH_eva_0050_af2_000000198_0001_43_62_H_._HHH_b2_07905_0001_0000100013_0000001_0 (protein)
chain: SSSSSSDELEKRVEELLEEARHLSDLEEVYRLLNEALHLAAKHKDHELLRLILEFLKEHSSSSSS
B6: il2ra_site1_3nfp_normal_mot_01923d483164837742cf829bee572cc5_0001_af2_000000153_0001_17_30_H_._HHH_b1_06675_0001_0000300010_0000001_0 (protein)
chain: SSSSDEERDARQLVEFLIELAGLSEEQQEELRRFAEKLVEEGVDLAEIAELVIRLAARLEGSSSS
B7: il2ra_site1_3nfp_sap_17_mot_ems_3hC_836_0002_000000087_0001_24_40_H_._HHH_b2_00803_0001_0000800041_0000001_0_0001 (protein)
chain: SSSSSDEEVKERVEELLEEARHVDPEEAAKLLKEAWEAAAELKDQELAEEIYRWMREIVKSSSSS
B8: il2ra_site1_3nfp_normal_mot_HHH_b1_03753_af2_000000088_0001_41_54_H_._894fcaf535bbcaf6280540f02ced91cd_0001_0001_0000600030_0000001_0 (protein)
chain: SLEEEVERLLREAGVPPRFIEVIKVLLRAVQKGNPNAERRLRYDIKVAEQLGNEELVEALELALK
B9: il2ra_site1_1z92_sap_13_mot_HHH_b1_04883_af2_000000041_0001_20_37_H_._HEEHE_3044_0001_0000100020_0000001_0_0001 (protein)
chain: SSSSSDEEEAEEVVERLVEEFGLSEEDKEALEKDAEAALRLGLSEKSIELALHRFARLLGSSSSS
B10: il2ra_site2_3nfp_sap_11_mot_HHH_b2_04859_000000206_0001_40_55_H_._HHH_b2_07245_0001_0000600015_0000001_0_0001_af2pred_0001_1_af2pred_swapped (protein)
chain: SSSSSEDEEEVEKLLKEAEKIEDEHEVFAILSLAIEIAIKSRNEELLEEILEVANELRERSSSSS
B11: il2ra_site2_2erj_sap_27_mot_3b06bd03f1c6bceadc68eab912867b79_0001_000000296_0001_36_50_H_._HHH_b1_03694_0001_0000600025_0000001_0_0001 (protein)
chain: SSSSSDREEFERVAELLARAAHIEDEEEVEKLLKEAEKIAEELNDEFAKRYVEFARRSYSSSSSS
B12: il2ra_site2_2erj_sap_17_mot_HHH_b2_05198_af2_000000162_0001_40_52_H_._HHH_b1_07298_0002_0000300014_0000001_0_0001 (protein)
chain: SSSSSEHYERVIELLVKAIELAREGDEEEAKEVLREAEEIAEEANDPYTLRYLQLAAKALSSSSS
B13: il2ra_site2_3nfp_sap_7_mot_HHH_b2_00746_000000285_0001_20_36_H_._HHH_b2_00413_af2_0001_0000200017_0000001_0_0001 (protein)
chain: SSSSDEVEELLREIRELLEEGDTYEAAQLLVRVSEIAAKLGDPELVKIVLELYKILKEKASSSSS
B14: il2ra_site2_3nfp_sap_24_mot_HHH_b1_06174_af2_000000017_0001_40_57_H_._3020bb65e3c0c4c1750efda2a61ed53f_0001_1_0001_0000100014_0000001_0_0001_af2pred_0001_af2pre … (protein)
chain: SSSSDEEEEEVKRLLEEAKELLKEGDPEEARRVLERAAKIAFELGNIELWVEIAELRQKLGSSSS
B15: il2ra_site2_3nfp_sap_15_mot_HHH_b2_06150_000000217_0001_39_53_H_._HHH_b2_00212_0001_0000300027_0000001_0_0001_af2pred_0001_1_af2pred_swapped (protein)
chain: DLTELIRELFESGDPDLQEIAHLLWLARVEGDEEVVELIEELIEELRKGELPPEEVRRLVEELLR
B16: il2ra_site2_3nfp_sap_17_mot_HHH_b2_05281_000000198_0001_39_56_H_._HHH_b1_05310_af2_0001_0000800014_0000001_0_0001 (protein)
chain: SSSSSDVEELLEEAEELIEDGNPYEAAQVLLEAAELIARRGDEELARILLELFELLQRAGSSSSS
B17: il2ra_site1_1z92_normal_mot_HHH_b1_08190_000000249_0001_1_19_H_._2c3364830c66fee1b0e8427e812e8af0_0001_0001_0000100002_0000001_0_af2pred_0001_af2pred (protein)
chain: SDEFLERQLKRKLELGNIEKFAKHLFKLLEIAAGDPEEAEEILRRLLEAAGVPPEVIEKILEEAK
B18: il2ra_site1_3nfp_normal_mot_ems_3hC_775_af2_000000149_0001_42_60_H_._592181844b486e9d3e72ee682cc18b0b_0001_0001_0000400025_0000001_0 (protein)
chain: DEERLEELAEELGVPPQARHLAKLILRARKQGFPPEEAERAVERYARLLGIPPEVIELAKELVRR
B19: il2ra_site2_3nfp_sap_16_mot_HHH_b2_05976_000000001_0001_22_38_H_._c19e5fdadaa67d7d98d76bf2a1bb890a_0001_af2_0001_0000400037_0000001_0_0001 (protein)
chain: SSSSDDVEEYLRAALALARRAIKQGDEELAEKILRLIAKSAEDAKDEEALKEAEELLREVGSSSS

The binders below were run against il2ra, P01589 (assay: yeast display titration).

Apparent Kd, inactive:
B1 no binding seen, B2 no binding seen, B3 no binding seen, B4 no binding seen, B5 no binding seen, B6 no binding seen, B7 no binding seen, B8 no binding seen, B9 no binding seen, B10 no binding seen, B11 no binding seen, B12 no binding seen, B13 no binding seen, B14 no binding seen, B15 no binding seen, B16 no binding seen, B17 no binding seen, B18 no binding seen, B19 no binding seen
